Measurements reported in PubChem BioAssay AID1259308 (NCATS, 2017).
Purpose: 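Candidate targets for better recombinant protein yield in mammalian cells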 (primary screen). Cells: human HEK293 embryonic kidney cells stably expressing firefly luciferase (HEK-CMV-Luc2-Hygro). Reagent: single siRNA against human genes, 0.8 pmol siRNA per well. Time to read-out: 72 h. Measurement: 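Reporter luminescence and viable-cell signal on separate replicate plates, given as percent of non-targeting control and median/MAD z-scores, plus per-cell luciferase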. Reading the numbers: total luciferase, z-score and total luciferase, % of control: higher = more reporter protein produced. Rule for the call: 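Active when the median/MAD z-score for overall luciferase is greater than 3; a gene was taken forward for validation with new siRNAs if at least two of its three siRNAs passed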. Calls: active = raised luciferase; inactive = no rise.
The whole screen tested about 59,000 reagents; this is a part drawn at random. About 1,510 of all reagents (2.6%) were called active. 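Calls use total luciferase alone and ignore viability, so some active siRNAs may act by altering cell number.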 A number with no mark means an inactive call. Reagents against one gene are numbered here. Further read-outs or replicates are left out here. Reagent sequences are not shown.

{"target": "GTF3C4", "reagent": 1, "total luciferase, z-score": 0.158, "total luciferase, % of control": 85}
{"target": "GTF3C4", "reagent": 2, "total luciferase, z-score": -0.473, "total luciferase, % of control": 72.5}
{"target": "GTF3C4", "reagent": 3, "total luciferase, z-score": 0.905, "total luciferase, % of control": 99.9}
{"target": "ADAM32", "reagent": 1, "total luciferase, z-score": 0.00734, "total luciferase, % of control": 82}
{"target": "ADAM32", "reagent": 2, "total luciferase, z-score": -0.657, "total luciferase, % of control": 68.8}
{"target": "ADAM32", "reagent": 3, "total luciferase, z-score": 1.22, "total luciferase, % of control": 106}
{"target": "THEMIS", "reagent": 1, "total luciferase, z-score": -0.384, "total luciferase, % of control": 74.2}
{"target": "THEMIS", "reagent": 2, "total luciferase, z-score": -0.567, "total luciferase, % of control": 70.6}
{"target": "THEMIS", "reagent": 3, "total luciferase, z-score": -1.11, "total luciferase, % of control": 59.7}
{"target": "ADIPOR1", "reagent": 1, "total luciferase, z-score": 0.793, "total luciferase, % of control": 97.7}
{"target": "ADIPOR1", "reagent": 2, "total luciferase, z-score": 0.643, "total luciferase, % of control": 94.7}
{"target": "ADIPOR1", "reagent": 3, "total luciferase, z-score": -0.0659, "total luciferase, % of control": 80.6}

Entries above whose gene name begins with T or t (3):
{"target": "THEMIS", "reagent": 1, "total luciferase, z-score": -0.384, "total luciferase, % of control": 74.2}
{"target": "THEMIS", "reagent": 2, "total luciferase, z-score": -0.567, "total luciferase, % of control": 70.6}
{"target": "THEMIS", "reagent": 3, "total luciferase, z-score": -1.11, "total luciferase, % of control": 59.7}
